Experimental data as given in PubChem BioAssay AID1508600 (Functional Genomics Laboratory (NCATS/FGL), 2020).
In all, about 53,000 sequences went through this assay and about 3,700 (7%) were called active.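 How the source made its calls: active means gene knockdowns whose robust z-score for IL-1 alpha signal is at least 2 or at most -2, so actives lie on both sides; inactive means the rest.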 This is one part of the list.

Assay: Components of the Cytosolic LPS Sensing Pathway: Gene Identification via Genome-wide siRNA Screen;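 further: robust z of the log signal after scaling to non-targeting control siRNA wells of the plate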
Details: RAW264.7 macrophages, IL-1a HTRF, actives lie on both sides, screened at 100 nM (by protocol), cells primed 5 h with Pam3CSK4 first
How it was run: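 IL-1a HTRF of supernatants after 24 hour LipidA transfection of Pam3CSK4-primed (5 hours) RAW264.7 cells, 48h post-siRNA transfection (100 nM). Scores: percent of plate negative-control median, then log-based robust z-score.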

z-score, active:
GGAGAAAGUCAAGAUCAAATT against Gpr4 2.12, GGUAAAAUCACUUCAGAUCTT against Phb 2.23, GCCUAGUUCUUUAUGCUAUTT against Golga4 4.37, GGAAAUUUGGAAAUUGCCUTT against Ntm 2.46

z-score, inactive:
CCUGUUUGUACAUCCUUGGTT against Olfr748 -1.25, GGGUGAGAGAUCCCAAGUUTT against Cypt1 0.784, GGACAGAGUGAAACUUUAUTT against Pcdhga9 -0.588, CCGUGACAGUCAUGUUGAUTT against Amt 0.235, CCUUCGGAUACUACUUUUCTT against Olfr531 -0.732, CGCUGGUACCUGAAAUAUUTT against Rnf123 1.61, GGUCCUUGUCUCUCAUGUATT against Snap29 0.287, CCUUACCACAUCCUUGUCGTT against Fcf1 -1.33, GCGUGUGCUAAUGAAAAUGTT against Fxr1 -0.48, GGGAAAGUUAAUAUCAAGATT against Ephb4 0.185, GGAUUUUCAUCGUGCUUUGTT against Necab3 1.23, GGAGGAAGAGAAGUACAUUTT against Khdrbs3 1.66, GGCUAAGCAAGGCUAUGUCTT against Rpl15 -1.01, GGAAUUUACUUACAUCAUGTT against Rbp3 0.179, GGAAAAUGACUUCAGCUGGTT against Sfmbt2 -1.45, GCUCUAUGUACGCGUUAGATT against Col18a1 -0.217, GCAGAGUCUGGAUCAACAUTT against Efcab14 -0.583, GGCACCUCUGCUUUUAAAGTT against Mrm2 0.926, GGUCAGAGAACUCUCUACATT against Zfp68 -1.24, GGAUCCACAAGGAAUUUAUTT against 9530003J23Rik 0.0919, GGAUCUAAAGGGUAGUGUCTT against Trim61 0.254, GGCUCCGAAUAGGAGAUCATT against Crk 0.348, GCCCAAUAGCCUAGGACCUTT against Sh2d7 -0.1, GGUGAUUUGCUCAAUCCAATT against Phox2a 0.611, GGAUAAUGAUGUGAAAGGCTT against Mrps30 0.984, CAGUAUGGCCCUGUCCUACTT against Hand2 0.705, GGCUAGCUUGGUUCAUUUATT against Oma1 1.37, GGAGACUCUUCAAUUGAGCTT against Fam229b -0.335, GGACCUUGCAUUUGCUUACTT against Fez2 -0.716, GGCUCUUACUUCAUCACUATT against Casp4 -1.9, GGCCGUGACAAAAUAGUAGTT against Vmn1r228 -0.599, GGUUGUGGAAAAUGUUAGGTT against Olfr1054 -0.644, GGAAAUUGCCAAACAUUUUTT against Plekhg3 -0.36, GGAUCAUGGAUGUAUAAAGTT against Lrrn4 -1.25, GAUGGACAAACGGAAGUGCTT against Iapp 0.322, GCUUAGGUAAUUUCAAGGUTT against Ppp1r15b 1.31, GGGACCAACUCCUAACAGATT against Csf2rb -1.28, GCAUAAUAGCGCAAGCUACTT against Ifi47 0.0047, GCAACCAUCUGAUGAUUAATT against Pp2d1 1.83, GCUUGUGAAUUAAUGAACATT against Farsb -0.625, CCAGCAAAUGGAUAACUUGTT against Epas1 1.49, GGUGGAGCUCAGUAUUCUGTT against Nrsn1 -0.28, GGAGGCUUUCUUCAGAAUGTT against Vmn1r-ps103 0.998, GCCGAUCAGAUGUAAUUCUTT against Cd276 -1.52, GCUAUGUUAUCACCACCAATT against Kcnab3 0.114, GGAGGAAGUGUUUUUCUCCTT against Psg27 -1.18, AGUCUUCACGUUUCAUUUATT against Olfr1195 0.32, CCAGUUGUAUAUGGUGUAGTT against Neurl4 -0.267, CGACAUGACCAAGAACGAUTT against Zyx -1.25, GGGCAGUAAGGACAGUUUUTT against Oaz1 0.406, CCUGCCAACUACGAAUGAATT against Stx8 0.845, GCGCAGAGAGAAAUAUCCCTT against Map4k1 -0.777, GGGCACUUCUUCAAUGUAUTT against Arl6ip6 -0.462, GCUGACUUUUAGUCAAGGATT against Dab2 0.87, CCAAGGACUCUCAUCUGUUTT against Zfp474 -0.712, GCUCAUGACACUCUUCCUGTT against Spib 1.45, CGAGUUGAAAUGUUGGCAATT against Klb -0.278, GCCUGACUAGAAAUAAAAATT against Pde4c -0.448, CAGUCUACCAGAUCCUUCCTT against H2-Q8 -0.418, CCUAGAUUCUCCAAACUAATT against D630029K05Rik -0.238, GGUCCAUCGAAGAAGUUCUTT against Cmas 0.983, CCCAGAUCUAGACUCCGACTT against Maf1 1.65, GGAGAUCAAAAAAAGAAAGTT against Cfl2 -0.816, GGCUCUCUUAGUUGUAUCATT against Mrpl35 -0.0818
